# In all, about 59,000 compounds went through this assay and about 35 (0.06%) were called active. Inconclusive means that the source gave no clear call. Such entries were picked first, then a sample of the others. Cut-off read from the data, not from the text of the source: active = max dye-equivalent concentration above about 10 nM; inconclusive = between about 1.1 nM and that limit; inactive = weaker than that.
# Test: qHTS Assay for Spectroscopic Profiling in Texas Red Spectral Region
# Conditions: Compound fluorescence, Texas Red channel, 547/618 nm; stronger effect = higher value
# Summary of the method: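 Compound titrations in 100 mM Tris pH 8.0 were incubated 15 min at room temperature and read at 547 nm excitation / 618 nm emission. Texas Red six-point standard curve on each plate converted fluorescence to dye-equivalent concentration.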
row,SMILES,max dye-equivalent concentration
1,Cn1c(=O)c(NCCO)c2c3c(cccc31)C(=O)c1ccccc1-2,inconclusive: 6 nM
2,COC(=O)c1ccccc1NC(=O)CN1CCC(C(=O)c2ccc3c(c2)OCCO3)CC1,inactive
3,COc1ccc(NC(=O)N2CCCCC2)cc1,inconclusive: 1.4 nM
4,CCOC(=O)CC(=O)CSc1nc2nc(C)cc(C)n2n1,inconclusive: 1.2 nM
5,Cc1ccc(N2CCN(c3ccc(C)cc3)C2c2ccncc2)cc1,inconclusive: 2 nM
6,COc1cc(NS(=O)(=O)c2ccc(C)cc2)ccc1-n1cnnn1,inconclusive: 1.2 nM
7,NC(=O)c1ccccc1NS(=O)(=O)Cc1ccc(Cl)cc1,inconclusive: 1.5 nM
8,CCOC(=O)c1sc(NC(=O)CSc2nnnn2-c2ccc(C)cc2)c(C(=O)OCC)c1C,inconclusive: 1.3 nM
9,C=C1c2c(Cl)ccc(O)c2C(O)=C2C(=O)[C@@]3(O)C(O)=C(C(N)=O)C(=O)[C@@H](N(C)C)[C@@H]3[C@@H](O)[C@H]12,inactive
10,c1ccc2c(c1)C(=Nc1ccc(N=C3c4ccccc4-c4ccccc43)cc1)c1ccccc1-2,inconclusive: 1.5 nM
11,Cn1c(=O)c2c(nc(NCC(O)CO)n2CCc2ccccc2)n(C)c1=O (stereo unspecified),inconclusive: 1.1 nM
12,COCCOC(=O)C1=C(N)OC2=C(C(=O)CCC2)C1c1cccnc1 (stereo unspecified),inconclusive: 1.4 nM
13,CCOc1ccc(/C=c2\sc3nc(-c4ccco4)nn3c2=O)cc1OCC,inactive
14,COc1ccccc1N1CCN(CCN(C(=O)c2ccc(F)cc2)c2ccccn2)CC1,inconclusive: 1.1 nM
15,Cc1ccc(CNC(=O)CN2CCC(C(N)=O)CC2)cc1,inconclusive: 1.3 nM
16,COc1ccc(-c2noc(CCC(=O)NC3CCCCC3)n2)cc1OC,inactive
17,CSc1nc(N2CCCC2)c2c(c1C#N)CC(C)(C)OC2,inconclusive: 1.6 nM
18,CCOc1cccc2cc(C(=O)N3CCc4ccccc43)c(=O)oc12,active: 23 nM
19,CCOC(=O)c1[nH]c2ccc(F)cc2c1NC(=O)CN1CCN(C/C=C/c2ccccc2)CC1,inconclusive: 1.1 nM
20,O=C(O)c1ccc(C2CCCCC2)cn1,inactive
21,O=C(C1CCN(c2nnc(-n3cccc3)s2)CC1)N1CCN(c2cccc(C(F)(F)F)c2)CC1,inconclusive: 2.2 nM
22,CCn1c(Cn2nnc(-c3ccccc3)n2)nnc1SCC(=O)N1CCOCC1,inconclusive: 1.8 nM

# In the list so far, these contain a Cl atom.
row,SMILES,max dye-equivalent concentration
7,NC(=O)c1ccccc1NS(=O)(=O)Cc1ccc(Cl)cc1,inconclusive: 1.5 nM
9,C=C1c2c(Cl)ccc(O)c2C(O)=C2C(=O)[C@@]3(O)C(O)=C(C(N)=O)C(=O)[C@@H](N(C)C)[C@@H]3[C@@H](O)[C@H]12,inactive

# (more compounds)

row,SMILES,max dye-equivalent concentration
1,O=C(CCC(=O)N1CCCc2ccccc21)N1CCN(S(=O)(=O)c2ccccc2)CC1,inconclusive: 1.1 nM
2,COc1cc(OC)cc(-c2nc(-c3ccccc3OC)no2)c1,inconclusive: 2.6 nM
3,COc1ccc2c(Cl)cc(NC(=S)Nc3ccccc3)nc2c1,inconclusive: 1.4 nM
4,C[C@@]12CC[C@@H]3c4ccc(O)cc4CC[C@H]3[C@H]1CC[C@H]2O,inconclusive: 1.3 nM
5,Clc1ccccc1-c1nn2c(-c3ccncc3)nnc2s1,inconclusive: 1.2 nM
6,CN(c1ccccc1)c1nc(N2CCCC2)nc(-n2ccnc2)n1,inconclusive: 1.5 nM
7,COC(=O)c1ccc(CSc2nnc(NCc3ccccc3)s2)o1,inconclusive: 1.2 nM
8,O=C(CSc1nnc(-c2ccccn2)n1Cc1ccccc1)Nc1ccc2c(c1)OCO2,inconclusive: 2.3 nM
9,O=C(NC12CC3CC(CC(C3)C1)C2)N1CCN(C(=O)C2CCCO2)CC1 (stereo unspecified),inconclusive: 2.5 nM
10,CSc1ccc(NC(=O)[C@H]2CCCC[C@@H]2C(=O)O)cc1,inactive
11,Cn1nc(-c2ccc(N3CCOCC3)c(NS(=O)(=O)c3ccccc3)c2)c2ccccc2c1=O,inconclusive: 1.4 nM
12,CC(NC(=O)c1cccc(N2CCCC2=O)c1)c1ccc2c(c1)OCCO2 (stereo unspecified),inconclusive: 1.5 nM
13,CCSc1nc2c(c(=O)[nH]c(=O)n2C)n1CC(O)COc1ccccc1C (stereo unspecified),inconclusive: 1.3 nM
14,CN(C)c1ncc2nc(-c3cccs3)c(=O)n(-c3ccccc3)c2n1,inactive
15,Cc1cc(C(=O)CN2C(=O)NC(C)(c3cccc(Br)c3)C2=O)c(C)n1Cc1ccco1 (stereo unspecified),inconclusive: 1.3 nM
16,Cn1cccc1-c1nc2ccc(NC(=O)c3ccccc3)cc2[nH]1,inconclusive: 1.2 nM
17,COCC(=O)NCc1nc2ccccc2n1Cc1ccccc1F,inconclusive: 1.1 nM
18,Cc1cc(Cl)c(S(=O)(=O)NCc2ccncc2)cc1OCC(N)=O,inconclusive: 1.1 nM
19,COC(=O)Cc1c(C)c2ccc(OCC(=O)N3CCOCC3)cc2oc1=O,inconclusive: 1.9 nM
20,O=c1[nH]c(=S)[nH]nc1Cc1ccccc1,inconclusive: 1.2 nM
21,NC(=S)NCCC[C@@H](N)C(=O)O,inactive
22,C/C(=C\C(=O)Nc1nccs1)c1ccccc1,inconclusive: 1.2 nM

# Among those listed so far, 16 have a carbonyl joined to an NH by a bond outside any ring.
row,SMILES,max dye-equivalent concentration
2,COC(=O)c1ccccc1NC(=O)CN1CCC(C(=O)c2ccc3c(c2)OCCO3)CC1,inactive
3,COc1ccc(NC(=O)N2CCCCC2)cc1,inconclusive: 1.4 nM
7,NC(=O)c1ccccc1NS(=O)(=O)Cc1ccc(Cl)cc1,inconclusive: 1.5 nM
8,CCOC(=O)c1sc(NC(=O)CSc2nnnn2-c2ccc(C)cc2)c(C(=O)OCC)c1C,inconclusive: 1.3 nM
9,C=C1c2c(Cl)ccc(O)c2C(O)=C2C(=O)[C@@]3(O)C(O)=C(C(N)=O)C(=O)[C@@H](N(C)C)[C@@H]3[C@@H](O)[C@H]12,inactive
15,Cc1ccc(CNC(=O)CN2CCC(C(N)=O)CC2)cc1,inconclusive: 1.3 nM
16,COc1ccc(-c2noc(CCC(=O)NC3CCCCC3)n2)cc1OC,inactive
19,CCOC(=O)c1[nH]c2ccc(F)cc2c1NC(=O)CN1CCN(C/C=C/c2ccccc2)CC1,inconclusive: 1.1 nM
8,O=C(CSc1nnc(-c2ccccn2)n1Cc1ccccc1)Nc1ccc2c(c1)OCO2,inconclusive: 2.3 nM
9,O=C(NC12CC3CC(CC(C3)C1)C2)N1CCN(C(=O)C2CCCO2)CC1 (stereo unspecified),inconclusive: 2.5 nM
10,CSc1ccc(NC(=O)[C@H]2CCCC[C@@H]2C(=O)O)cc1,inactive
12,CC(NC(=O)c1cccc(N2CCCC2=O)c1)c1ccc2c(c1)OCCO2 (stereo unspecified),inconclusive: 1.5 nM
16,Cn1cccc1-c1nc2ccc(NC(=O)c3ccccc3)cc2[nH]1,inconclusive: 1.2 nM
17,COCC(=O)NCc1nc2ccccc2n1Cc1ccccc1F,inconclusive: 1.1 nM
18,Cc1cc(Cl)c(S(=O)(=O)NCc2ccncc2)cc1OCC(N)=O,inconclusive: 1.1 nM
22,C/C(=C\C(=O)Nc1nccs1)c1ccccc1,inconclusive: 1.2 nM

# Next results follow.

row,SMILES,max dye-equivalent concentration
1,N#CC1=C(N)Oc2c(ccc3cccnc23)C1c1cccnc1 (stereo unspecified),inconclusive: 3 nM
2,N=C(N)SCc1nc(-c2ccc(Cl)cc2)no1,inactive
3,O=C(O)CNc1ccc(C(=O)O)cc1,inactive
4,CCCN(c1nc(C)cc(OC)n1)S(=O)(=O)c1ccccc1,inconclusive: 1.4 nM
5,CCN(CC)c1ccc(C2C3CCCCC3(O)CCN2CC(=O)N2CCCCC2)cc1 (stereo unspecified),inconclusive: 1.5 nM
6,O=C1CN(C(=O)COC(=O)C2=COCCO2)c2ccccc2N1,inconclusive: 4.1 nM
7,c1csc(CNc2nc(-c3ccoc3)nc3ccccc23)c1,inactive
8,COc1ccc(OC)c(NC(=O)CS(=O)(=O)c2ccccc2)c1,inconclusive: 1.5 nM
9,CC(CCO)Nc1nc2c(c(=O)n(C)c(=O)n2C)n1Cc1cccc(Br)c1 (stereo unspecified),inconclusive: 1.1 nM
10,CCCCOC(=O)CSc1nnc(-c2ccc(Cl)cc2Cl)o1,inconclusive: 1.6 nM
11,COc1ccc(S(=O)(=O)N2CCN(C(=O)c3c(C)nn(-c4ccccc4)c3Cl)CC2)cc1,inconclusive: 1.1 nM
12,CCOC(=O)C1CCN(C(=O)CCc2nc3ccccc3[nH]2)CC1,inconclusive: 1.1 nM
13,COC(=O)[C@H](N)Cc1ccc(Cl)cc1,inactive
14,CC(C)(C)NC(=O)C1N(c2cccnc2)C(=O)C2C(C(=O)Nc3ccccc3F)C3(C)C=CC21O3 (stereo unspecified),inconclusive: 1.1 nM
15,CN(C)c1ccc(CN(C(=O)C2COc3ccccc3O2)C2CCS(=O)(=O)C2)cc1 (stereo unspecified),inconclusive: 1.1 nM
16,CCC(=O)N(CCCN(C)C)c1nc(-c2cc(OC)ccc2OC)cs1,inconclusive: 1.1 nM
17,CCOc1ccccc1C1NC(=O)NC(C)=C1C(=O)OC1CCCC1C (stereo unspecified),inconclusive: 1.8 nM
18,COc1ccccc1S(=O)(=O)Cc1ccc(C(=O)NC2CCCCC2)o1,inconclusive: 1.4 nM
19,CCOC(=O)c1cc2sc(C)cc2n1C(C)C(=O)OCC (stereo unspecified),inconclusive: 2.2 nM
20,COc1ccc(OC)c(S(=O)(=O)N2CCCCC2C(=O)N2CCN(c3ccccn3)CC2)c1 (stereo unspecified),inconclusive: 1.9 nM
21,C=C(C)COc1ccc(-c2[nH]ncc2Oc2cccc(OC)c2)c(O)c1,inconclusive: 3 nM
22,O=c1[nH]c(-c2cccnc2)nc2ccccc12,inconclusive: 1.7 nM

row,SMILES,max dye-equivalent concentration
1,Cc1ccc(C(=O)Nc2ccc3c(c2)nc2n3CCSC2)cc1,inconclusive: 1.6 nM
2,CCOC(=O)c1[nH]c2cc(OC)c(OC)cc2c1NC(=O)C(C)N1CCN(Cc2ccccc2)CC1 (stereo unspecified),inconclusive: 1.2 nM
3,O=C(NCc1ccccc1)N[C@@H](Cc1c[nH]c2ccccc12)C(=O)O,inconclusive: 1.4 nM
4,Cc1c2c(nc3c(C(=O)NC4CCCC4)cnn13)CCCC2,inconclusive: 1.2 nM
5,CC1(C)S[C@@H]2[C@H](NC(=O)[C@H](C(=O)O)c3ccsc3)C(=O)N2[C@H]1C(=O)O,inconclusive: 1.1 nM
6,Cc1c(Cl)cccc1NC(=O)C[C@H]1Sc2ccccc2NC1=O,inconclusive: 1.4 nM
7,CCCn1c2ccccc2c2nc3ccccc3nc21,inconclusive: 1.2 nM
8,CC(=O)c1ccc(OCCCC(=O)OCC(=O)N2CCN(c3ccccc3)CC2)cc1,inconclusive: 1.9 nM
9,COc1ccc(CCNC(=O)C2CCCN(S(C)(=O)=O)C2)cc1OC (stereo unspecified),inconclusive: 1.6 nM
10,O=c1c2ccccc2nnn1CSc1ncnc2ccccc12,inconclusive: 1.4 nM
11,CCC(c1nc2ccccc2c(=O)n1CCCn1ccnc1)N1C(=O)c2ccccc2C1=O (stereo unspecified),inconclusive: 2.3 nM
12,Cc1cc(C(F)(F)F)nn1CC(=O)Nc1cccnc1,inconclusive: 1.2 nM
13,CCOCCCn1c(SCC(=O)NC(C)C)nc2ccccc2c1=O,inconclusive: 2.2 nM
14,CCc1ccccc1N(C)C(=O)CCc1nc(-c2ccc(C)cc2)no1,inconclusive: 1.2 nM
15,O=C(COC(=O)c1ccc(S(=O)(=O)Nc2ccccc2)cc1)NCCN1C(=O)CSC1=O,inconclusive: 2.2 nM
16,O=C(CN1CCOCC1)N1CCN(S(=O)(=O)c2ccccc2)C1c1ccccc1 (stereo unspecified),inconclusive: 1.8 nM
17,Cc1nn2cc(-c3ccc(Cl)cc3)nc2s1,inconclusive: 1.4 nM
18,O=C(Nc1cc(N2CCOCC2)ncn1)Nc1cccc2ccccc12,inconclusive: 1.2 nM
19,O=C(OCC(=O)c1ccccc1Br)c1ccccn1,inconclusive: 1.8 nM
20,N[C@@H](CSC(=O)c1ccccc1)C(=O)O,inconclusive: 1.1 nM
